Assay results from paper doi:10.1101/2021.10.14.464379.
These are yes or no findings as the source states them, for the method shown.

Biological target: Arabidopsis thaliana BAM1 (Arabidopsis thaliana) (UniProt Q9LIR6)
Test: SEC-SAXS

binding: no binding
B1: Arabidopsis thaliana BAM1 (enzyme, UniProt Q9LIR6 42-575)
chain: AMNRNYKAHGTDPSPPMSPILGATRADLSVACKAFAVENGIGTIEEQRTYREGGIGGKKEGGGGVPVFVMMPLDSVTMGNTVNRRKAMKASLQALKSAGVEGIMIDVWWGLVEKESPGTYNWGGYNELLELAKKLGLKVQAVMSFHQCGGNVGDSVTIPLPQWVVEEVDKDPDLAYTDQWGRRNHEYISLGADTLPVLKGRTPVQCYADFMRAFRDNFKHLLGETIVEIQVGMGPAGELRYPSYPEQEGTWKFPGIGAFQCYDKYSLSSLKAAAETYGKPEWGSTGPTDAGHYNNWPEDTQFFKKEGGGWNSEYGDFFLSWYSQMLLDHGERILSSAKSIFENMGVKISVKIAGIHWHYGTRSHAPELTAGYYNTRFRDGYLPIAQMLARHNAIFNFTCIEMRDHEQPQDALCAPEKLVNQVALATLAAEVPLAGENALPRYDDYAHEQILKASALNLDQNNEGEPREMCAFTYLRMNPELFQADNWGKFVAFVKKMGEGRDSHRCREEVEREAEHFVHVTQPLVQEAAVALTH
